According to PubChem BioAssay AID1439 (NMMLSC, 2008):
In all, about 220,000 compounds went through this assay and about 770 (0.35%) were called active. This list was built around the results that the source calls inconclusive (neither active nor inactive); the mix of calls is not that of the screen. Rule as the data show it: active = binding response below about 49% or above about 150%; inconclusive = no clear call, values can overlap the other calls; inactive = in between.

The chains behind the UniProt entries cited, without tags or fusion partners.
UniProt P09471, whole entry, looked up: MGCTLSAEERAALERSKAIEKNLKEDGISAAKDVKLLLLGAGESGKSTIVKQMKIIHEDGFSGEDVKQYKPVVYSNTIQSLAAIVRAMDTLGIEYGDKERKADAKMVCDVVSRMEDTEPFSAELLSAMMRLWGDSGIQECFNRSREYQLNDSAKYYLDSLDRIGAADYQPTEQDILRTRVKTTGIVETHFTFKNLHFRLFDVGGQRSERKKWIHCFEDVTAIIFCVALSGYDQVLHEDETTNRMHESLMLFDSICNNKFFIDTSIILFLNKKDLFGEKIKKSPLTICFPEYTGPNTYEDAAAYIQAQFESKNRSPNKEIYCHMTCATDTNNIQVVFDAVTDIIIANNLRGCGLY

Target: Guanine nucleotide-binding protein G(o) subunit alpha (Homo sapiens) (UniProt P09471)
Test: RGS7-Galphao binding modulators, primary screen, biochemical, multiplexed bead flow cytometry (AID 1439);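 also: fluorescent Galphao held in activated GDP-AlF4 state binding bead-coupled RGS7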
Details: at 10 µM, actives lie on both sides

Row | SMILES | binding response (% of control)
1 | CC(C)OC(=O)CSc1nnc(C2CCCCC2)n1N | inconclusive: 384%
2 | O=C(CC1S/C(=N/N=C/c2cccs2)NC1=O)Nc1ccccc1F (stereo not given) | inconclusive: 124%
3 | O=C(C1CC1)N1CCN(c2ccc([N+](=O)[O-])cc2-n2cccc2)CC1 | inconclusive: 83%
4 | Cc1cc2cc(CNC(=O)c3ccc(S(=O)(=O)N4CCOCC4)cc3)ccc2[nH]1 | inconclusive: 91.6%
5 | Cc1cccc(-n2c(O)c(C=Nc3ccccc3-c3n[nH]c(=S)[nH]c3=O)c3ccccc3c2=O)n1 | inconclusive: 146%
6 | Cc1ccccc1NC(=O)N1CCN(c2ncccn2)CC1 | inactive: 99.3%
7 | C=CCNC(=S)/N=c1/ccccn1C | inconclusive: 104%
8 | Cc1nn(-c2ccccc2)c(N)c1N=O | inconclusive: 95.5%
9 | Cc1ccc(C(C)C)c(OCCNC(=S)Nc2cccc3ccccc23)c1 | inactive: 105%
10 | COc1ccc(CC(NC(C)=O)C(=O)NC2CCN(c3c4c(nc5ncnn35)CCC4)CC2)cc1OC (stereo not given) | inconclusive: 91.8%
11 | COC(=O)c1cc(NC(=O)c2ccccc2)c(=O)oc1C | inconclusive: 101%
12 | COc1ccc(-c2nc(N/N=C(\C)c3ccc(O)cc3)c3ccccc3n2)cc1 | inconclusive: 132%
13 | O=C(CSc1ccc2c(c1)OCCO2)Nc1ccc(N2CCOCC2)cc1 | inconclusive: 128%
14 | COC(=O)c1cc2cc(Cl)ccc2nc1SC | inconclusive: -3.44%
15 | O=C(O)/C=C/C(=O)Nc1ccc(OC(F)(F)F)cc1Br | inconclusive: 91.8%
16 | O=C(COc1c(Cl)cccc1Cl)NN1C(=O)CSC1=S | inconclusive: 88.8%
17 | CN(CC1COc2ccccc2O1)C(=S)NC1CCCCC1 (stereo not given) | inconclusive: 113%
18 | COc1cccc2cc(C(=O)NCCC3=CCCCC3)c(=O)oc12 | inconclusive: 100%
19 | O=C1/C(=C/c2ccccn2)SC(=S)N1c1ccc(O)cc1 | inconclusive: 83.1%
20 | Cn1nc(NC(=O)C2CCC2C(=O)O)c2c(F)cccc21 (stereo not given) | inconclusive: 90.7%
21 | CC(=O)Nc1ccc(N2CCOCC2)c([N+](=O)[O-])c1 | inconclusive: 110%
22 | CCOc1ccc(OCCCCn2ccnc2)cc1 | inactive: 97.3%
23 | CCOC(=O)C1(Cc2ccccc2)CCN(Cc2ccc(C3CCCCO3)s2)CC1 (stereo not given) | inconclusive: 104%

Row | SMILES | binding response (% of control)
24 | CC(C)[C@H](Nc1ccc(C(F)(F)F)cc1[N+](=O)[O-])C(=O)O | inconclusive: 59.6%
25 | CC(C)c1nc(C(=O)N2CCCC(CCC(=O)N(C)CCc3ccccn3)C2)cs1 (stereo not given) | inactive: 100%
26 | CCCCNC(=O)c1cc(C)nc2ccccc12 | inconclusive: 192%
27 | Cc1ccc(CC2CC(=O)N(c3ncccn3)C2=O)cc1 (stereo not given) | inconclusive: 105%
28 | Cc1ccc([N+](=O)[O-])cc1-c1ccc(/C=N/NC(=O)CN2CCOCC2)o1 | inconclusive: 491%
29 | CN(C)/N=C/C=C1\CCC/C(=C/c2cccs2)C1=O | inconclusive: 144%
30 | COc1ccc(-c2nnn3c2nc(NCc2ccccc2)c2ccccc23)cc1 | inconclusive: 104%
31 | Cc1cc(C)c(S(=O)(=O)NC2CCN(Cc3ccccc3)CC2)c(C)c1 | inconclusive: 111%
32 | CCN(CC)CCn1c(=N)n(CC(O)COc2ccccc2)c2ccccc21 (stereo not given) | inconclusive: 34.1%
33 | Cc1cccc2c(N=O)c(O)[nH]c12 | inconclusive: 114%
34 | CCN(CC)C(=O)CCCC(=O)N(CC)CC | inactive: 106%
35 | CC(=O)N1CCC(N(CCN2CCOCC2)C(=S)Nc2ccc(C)c(C)c2)CC1 | inactive: 99.9%
36 | O=C1CCCC1C(=O)Nc1ccc2ccccc2c1 (stereo not given) | inconclusive: 265%
37 | Cc1cccc(Cn2c(C)nc3c(N)c(C)c(C)cc32)c1 | inactive: 94.7%
38 | CSc1nc(C)c(CCO)c(=O)[nH]1 | inconclusive: 84.8%
39 | COc1cccc(NC(=O)N2CCOCC2)c1 | inactive: 97.1%
40 | O=C(CSc1ccccn1)c1ccc(F)cc1 | inactive: 90.5%
41 | N#C/C(=C\c1cc(Cl)c(OCc2ccc(Cl)cc2)c(Cl)c1)C(N)=O | inconclusive: 110%
42 | FC(F)(F)c1ccc(-n2cn[nH]c2=S)cc1 | inconclusive: 89%
43 | CCOC(=O)CCc1c(C(=O)OCC)[nH]c(CC)c1C(=O)OCc1ccccc1 | inconclusive: 91.4%
44 | COC(=O)c1sc(-c2ccccc2)cc1NC(=O)c1ccc(F)cc1 | inactive: 100%
45 | CC1CCC2C(=O)N(c3ccccc3OC(=O)c3ccccc3F)C(=O)C2C1 (stereo not given) | inconclusive: 101%
46 | O=C(CCC(=O)N1CCN(c2ccccc2F)CC1)c1ccc(F)cc1 | inconclusive: 86%

Row | SMILES | binding response (% of control)
47 | O=C(CN1C(=O)S/C(=C\C=C\c2ccccc2)C1=O)Nc1ccc(C(=O)O)cc1 | inconclusive: 66.5%
48 | NC(=O)CC(NC(=O)Cc1ccc(Br)cc1)c1ccc(N2CCC(Cc3ccccc3)CC2)c([N+](=O)[O-])c1 (stereo not given) | inconclusive: 100%
49 | CS(=O)(=O)c1cccc(NC(=O)c2ccc(Cl)c(Cl)c2)c1 | inconclusive: 94.5%
50 | O=C(/C=C/c1ccccc1)N(Cc1ccc(Cl)cc1)C1CCS(=O)(=O)C1 (stereo not given) | inconclusive: 112%
51 | Cc1ccc(CNC(=O)C2CCC(CNc3c(N4CCC(C)CC4)c(=O)c3=O)CC2)cc1 (stereo not given) | inconclusive: 85.9%
52 | Nn1cc(-c2ccccc2)nc1SCC(=O)Nc1ccc(S(N)(=O)=O)cc1 | inconclusive: 98.2%
53 | Cc1ccc(S(=O)(=O)NC(=O)NCc2ccccc2)cc1 | inactive: 99.8%
54 | Oc1c(C(c2cccs2)N2CCN(c3cccc(Cl)c3)CC2)sc2ncnn12 (stereo not given) | inactive: 92.3%
55 | CCN1C(=O)c2ccccc2S(=O)c2ccc(C(=O)N3CCOCC3)cc21 (stereo not given) | inconclusive: 80.1%
56 | CCCCSCc1ccc(C(=O)O)o1 | inactive: 91.4%
57 | CCO[C@H]1OC(C(=O)N2CCN(Cc3ccc4c(c3)OCO4)CC2)=C[C@@H](C2CC2)[C@@H]1CCCO | active: 42%
58 | O=[N+]([O-])c1ccc(C(O)CN=Cc2ccc(O)cc2O)cc1 (stereo not given) | inactive: 92%
59 | COc1cc(C(O)c2nc3ccccc3s2)cc(OC)c1OC (stereo not given) | inconclusive: 116%
60 | Cc1cccc2nc(CSc3ccccc3C(=O)O)cn12 | inactive: 99.9%
61 | CC(=O)c1ccc(Oc2cnccn2)cc1 | inconclusive: 122%
62 | C[C@H]1O[C@H](O[C@H]2[C@H](O)[C@@H](O)[C@@H](O[C@H]3[C@H](O)[C@@H](O)C(O)O[C@@H]3CO)O[C@@H]2CO)[C@H](O)[C@@H](O)[C@@H]1N[C@H]1C=C(CO)[C@@H](O)[C@H](O)[C@H]1O (stereo not given in full) | inactive: 104%
63 | Cc1ccc(NC(=O)CCC(=O)NNC(=O)c2ccccc2[N+](=O)[O-])c(C)c1 | inactive: 96.7%
64 | O=C(CN1CCc2ccccc21)NN1CC(=O)N(c2ccccc2)CC1=O | inconclusive: 24.4%
65 | c1ccc(COc2cccc(CNCc3ccccn3)c2)cc1 | inconclusive: 90.7%
66 | CCN(CC)S(=O)(=O)c1ccc(N2CCOCC2)c(NC(=O)c2ccc(OC)c([N+](=O)[O-])c2)c1 | inconclusive: 127%
67 | CCOC(=O)Cc1nc(-c2ccccc2)n[nH]1 | inconclusive: 80.3%
68 | CCOC(=O)N1CCC(N2C(=O)c3ccccc3C2Nc2cc(C)cc(C)c2)CC1 (stereo not given) | inconclusive: 115%
69 | CCCCN(C)C(=O)CCCCn1c(=O)[nH]c2cc(OCC)c(OCC)cc2c1=O | inactive: 103%

Row | SMILES | binding response (% of control)
70 | Cc1ccc(S(=O)(=O)Nc2ccnc(-c3cccnc3)n2)cc1 | inactive: 102%
71 | CC(=O)NNC(=O)c1sc(=S)n(C)c1C | inconclusive: 130%
72 | CC(=O)NC(=S)Nc1ccc2oc(=O)ccc2c1 | inconclusive: 167%
73 | CCc1ccc(Oc2nnnn2-c2ccc(C(N)=O)cc2)cc1 | inconclusive: 114%
74 | CNC(=S)NNC(=O)c1cc(C(C)(C)C)nn1Cc1ccc(F)cc1 | inconclusive: 129%
75 | Clc1ncc(Cn2cccn2)s1 | inconclusive: 102%
76 | Cc1ccc(C)c(OCC(=O)O/N=C(\N)c2cccc([N+](=O)[O-])c2)c1 | inconclusive: 94.9%
77 | O=c1[nH]c2cc3c(cc2cc1CN(CC1CCCO1)S(=O)(=O)c1ccc(Cl)cc1)OCCO3 (stereo not given) | inactive: 110%
78 | CCCCN(C(C)=O)c1c(N)n(CCC)c(=O)n(CC(=O)Nc2cc(Cl)cc(Cl)c2)c1=O | inconclusive: 82.1%
79 | COC(=O)c1[nH]c(C)c(/C(O)=C2\C(=O)C(=O)N(CCN3CCOCC3)C2c2ccc(C)o2)c1C (stereo not given) | inconclusive: 72.4%
80 | CC(=O)Nc1sc(N/N=C/c2ccccc2F)nc1-c1ccc(C)cc1 | inconclusive: 93%
81 | COc1ccc(C2c3c(-c4ccccc4O)n[nH]c3C(=O)N2Cc2ccco2)cc1OC (stereo not given) | inconclusive: 87.2%
82 | CCCc1nnc(NS(=O)(=O)c2ccc(OC)cc2)s1 | inactive: 103%
83 | Cc1nn(C)c(C)c1C1C(C#N)=C(N)Oc2n[nH]c(C)c21 (stereo not given) | inactive: 109%
84 | Cn1c(=S)[nH]c2scc(-c3cccs3)c2c1=O | inconclusive: 105%
85 | CCCc1nc2sc3c(c2c(=O)n1NC(=O)CCC(=O)OC)CCCC3 | inconclusive: 96.2%
86 | COc1ccccc1N1CCN(C(=O)C2CCCCN2S(=O)(=O)c2ccc(C)cc2)CC1 (stereo not given) | inconclusive: 83.9%
87 | COc1cc(C(CC(=O)N2CCOCC2)c2c(OC)cc(OC)c3ccc(=O)oc23)cc(OC)c1OC (stereo not given) | inconclusive: 115%
88 | C[C@H](NC(=O)c1ccco1)C(=O)NCCc1ccc(S(N)(=O)=O)cc1 | inconclusive: 257%
89 | NNC(=O)Cn1c2ccccc2c2ccccc21 | inconclusive: 61.4%
90 | O=C1CS/C(=N\N=C\c2ccco2)N1c1ccccc1 | inconclusive: 75.1%

5 entries from above, comma-delimited.
Row,SMILES,binding response (% of control)
70,Cc1ccc(S(=O)(=O)Nc2ccnc(-c3cccnc3)n2)cc1,inactive: 102%
71,CC(=O)NNC(=O)c1sc(=S)n(C)c1C,inconclusive: 130%
76,Cc1ccc(C)c(OCC(=O)O/N=C(\N)c2cccc([N+](=O)[O-])c2)c1,inconclusive: 94.9%
83,Cc1nn(C)c(C)c1C1C(C#N)=C(N)Oc2n[nH]c(C)c21 (stereo not given),inactive: 109%
86,COc1ccccc1N1CCN(C(=O)C2CCCCN2S(=O)(=O)c2ccc(C)cc2)CC1 (stereo not given),inconclusive: 83.9%
